{
  "sequences": {"note": "Sequences of proteins named here, by UniProt entry; tags and fusion partners are left off. A change or cut given only in a name is not applied to a line headed by its entry.", "UniProt P18054": "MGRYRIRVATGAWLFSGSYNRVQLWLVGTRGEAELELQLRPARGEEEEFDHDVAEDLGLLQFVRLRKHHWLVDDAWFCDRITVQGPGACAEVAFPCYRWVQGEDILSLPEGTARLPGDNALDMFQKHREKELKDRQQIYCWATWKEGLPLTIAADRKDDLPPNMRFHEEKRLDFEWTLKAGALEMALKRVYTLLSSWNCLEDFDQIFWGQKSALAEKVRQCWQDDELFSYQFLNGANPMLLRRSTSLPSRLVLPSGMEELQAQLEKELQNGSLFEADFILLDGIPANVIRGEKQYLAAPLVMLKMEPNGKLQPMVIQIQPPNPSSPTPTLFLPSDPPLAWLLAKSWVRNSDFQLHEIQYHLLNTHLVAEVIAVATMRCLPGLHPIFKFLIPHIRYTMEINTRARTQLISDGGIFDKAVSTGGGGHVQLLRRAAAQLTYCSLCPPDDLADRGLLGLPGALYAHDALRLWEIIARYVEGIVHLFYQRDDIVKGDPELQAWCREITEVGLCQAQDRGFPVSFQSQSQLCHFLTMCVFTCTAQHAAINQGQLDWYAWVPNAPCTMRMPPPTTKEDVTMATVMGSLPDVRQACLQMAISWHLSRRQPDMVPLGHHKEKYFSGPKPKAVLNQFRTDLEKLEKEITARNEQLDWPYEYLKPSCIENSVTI"},
  "source": "PubChem BioAssay AID1671190",
  "about": "(National Center for Advancing Translational Sciences (NCATS), 2021)",
  "note": "“And” between values parts separate entries of the source, which are not always exact repeats. Equal values may be shown once. About 6,100 (1.1%) of roughly 580,000 compounds were called active. The inconclusive results got no clear call from the source; some entries with a clear call stand among them for comparison. Calls follow the shape of the dose curve; as a rule, active = well fitted inhibition curve with a large enough effect; inconclusive = small, poorly fitted or top-dose-only effect, or another doubt; inactive = no such curve, though single readings can be large or run the other way. Potencies beside an inconclusive call are fits to weak or partial responses and may not hold up. % is scaled to controls: 0 for no effect and ±100 for the full control effect; potency is read from the fitted curve at half-maximal effect.",
  "data": [
    {"target": "Polyunsaturated fatty acid lipoxygenase ALOX12 (Homo sapiens) (UniProt P18054)", "experiment": "Primary qHTS assay for inhibitors of human arachidonate 12S-lipoxygenase (ALOX12): Round 2", "details": "purified 12hLO, xylenol orange hydroperoxide absorbance; activity change, negative = inhibition: at 108 µM (top of the series) unless noted", "outline": "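Purified human 12hLO (150 nM final) in 25 mM Hepes, 0.01% Triton X-100, pH 7.0 was preincubated 15 min at room temperature with compound. Then 40 uM arachidonic acid was added, 30 min. Hydroperoxide was read by Fe-XO absorbance ratio 573/405 nm.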", "values": [
      {"compound": "CCCn1c(C)cc(C(=O)COC(=O)c2c(C)nn(Cc3ccc(C)cc3)c2Cl)c1C", "Potency": "inconclusive: 126 µM [inhibitor, partial curve, poor fit]"},
      {"compound": "O=C(c1ccc(F)cc1)c1cnc(Nc2ccccc2)s1", "Potency": "inconclusive: 50.1 µM [inhibitor, partial curve, poor fit]"},
      {"compound": "COc1ccc(-c2cc(OC)c3c(C)oc(C)c3c(=O)c2)cc1OC", "Potency": "inconclusive: 10 µM [inhibitor, full curve, poor fit]"},
      {"compound": "CNC(=O)c1c(NC(=O)c2ccc(S(=O)(=O)N3CCCC3)cc2)sc2c1CCN(C(C)C)C2", "Potency": "inconclusive: 3.98 µM [inhibitor, full curve, poor fit]"},
      {"compound": "Cc1cn(CC(=O)N[C@H](CO)Cc2c[nH]c3ccccc23)c(=O)[nH]c1=O", "Potency": "inconclusive: 44.7 µM [inhibitor, partial curve, poor fit]"},
      {"compound": "CCc1ccccc1NC(=O)Nc1cn(CC(C)C)c(=O)c2ccccc12", "Potency": "inconclusive: 50.1 µM [inhibitor, partial curve, poor fit]"},
      {"compound": "CCCCN(CC)C(=O)c1ccc2c(c1)OCO2", "Potency": "inconclusive: 35.5 µM [inhibitor, partial curve, poor fit]"},
      {"compound": "Cn1nc(C2CCN(C(=O)c3ccccc3)CC2)c2c1CCOC2", "activity change, negative = inhibition": "inactive: 6.27%"},
      {"compound": "O=C(Nc1ccc(Cl)cn1)c1ccccc1F", "Potency": "inconclusive: 126 µM [inhibitor, partial curve, poor fit]"},
      {"compound": "Cc1cccc(N2CCN(C(=O)Cn3ncc4c([nH]c5ccccc54)c3=O)CC2C)c1", "note": "(configuration not stated)", "Potency": "inconclusive: 126 µM [inhibitor, partial curve, poor fit]"},
      {"compound": "O=C(CCCc1nc2ccccc2s1)NC1CCCCCCC1", "Potency": "inconclusive: 31.6 µM [inhibitor, partial curve, poor fit]"},
      {"compound": "CC(C)CNC1CCS(=O)(=O)C1", "note": "(configuration not stated)", "Potency": "inconclusive: 35.5 µM [inhibitor, single point]"},
      {"compound": "COc1cccc2sc(NN)nc12", "Potency": "inconclusive: 39.8 µM [inhibitor, partial curve, poor fit]"},
      {"compound": "O=C(c1cccc(F)c1)N1CCN(c2ccc([N+](=O)[O-])c3cccnc23)CC1", "Potency": "active: 39.8 µM"},
      {"compound": "COC(=O)c1c(NC(NC(=O)C(C)(C)C)C(Cl)(Cl)Cl)sc2c1CCC2", "note": "(configuration not stated)", "Potency": "inconclusive: 44.7 µM [inhibitor, partial curve, poor fit]"},
      {"compound": "O=C(O)c1ccc2c(=O)n(Cc3ccccc3)c(SCc3ccc([N+](=O)[O-])cc3)nc2c1", "Potency": "inconclusive: 112 µM [inhibitor, partial curve, poor fit]"},
      {"compound": "CC(=Nc1ccccc1)C1=C(O)C(Cc2cccc(F)c2)NC1=O", "note": "(configuration not stated)", "Potency": "inconclusive: 12.6 µM [inhibitor, partial curve]"},
      {"compound": "Cc1ccc(S(=O)(=O)c2nc(-c3ccco3)oc2SCc2ccc(F)cc2)cc1", "Potency": "inconclusive: 39.8 µM [inhibitor, partial curve, poor fit]"},
      {"compound": "COc1cccc(-c2noc(COc3ccc4ccc(=O)oc4c3)n2)c1", "Potency": "inconclusive: 141 µM [inhibitor, single point]"},
      {"compound": "COc1ccc(-c2cccc(-c3nc4ccc(Cl)cn4c3NC3CCCCC3)c2)cc1", "Potency": "active: 7.08 µM"},
      {"compound": "O=c1[nH]nc(-c2ccco2)c2c1Nc1nnnn1C2c1ccc(Br)cc1", "note": "(configuration not stated)", "Potency": "inconclusive: 39.8 µM [inhibitor, partial curve, poor fit]"},
      {"compound": "CN(C)S(=O)(=O)c1ccc(NC(=O)COc2ncnc3c2cnn3-c2ccccc2)cc1", "Potency": "inconclusive: 89.1 µM [inhibitor, partial curve, poor fit]"},
      {"compound": "C[C@H]1C=C2C=C[C@H](C)[C@H](CC[C@@H]3C[C@@H](O)CC(=O)O3)[C@H]2[C@@H](OC(=O)[C@@H](C)CCO)C1", "Potency": "inconclusive: 22.4 µM [inhibitor, partial curve, poor fit]"},
      {"compound": "CN(Cc1ccccc1)C(=O)Cc1ccc(N(Cc2ccccc2)C(=O)c2ccco2)cc1", "Potency": "inconclusive: 14.1 µM [inhibitor, full curve]"},
      {"compound": "Cc1csc(NC(=O)CCNC(=O)c2ccc([N+](=O)[O-])cc2)n1", "Potency": "inconclusive: 0.631 µM [inhibitor, full curve, poor fit]"},
      {"compound": "COc1ccc(CCNC(=O)c2c(C)nn(CC(C)C)c2Cl)cc1", "Potency": "inconclusive: 100 µM [inhibitor, single point]"},
      {"compound": "COc1ccc(S(=O)(=O)NCCc2sc3nc(-c4ccc(C)cc4)nn3c2C)cc1F", "Potency": "inconclusive: 100 µM [inhibitor, partial curve, poor fit]"},
      {"compound": "Cc1c(OCC(F)(F)F)ccnc1CS(=O)c1nc2ccccc2[nH]1", "note": "(configuration not stated)", "Potency": "inconclusive: 35.5 µM [inhibitor, partial curve, poor fit] and inconclusive: 14.1 µM [inhibitor, partial curve, poor fit]"},
      {"compound": "CCN(CC)CCCNCC(=O)Nc1cc(C)on1", "Potency": "inconclusive: 0.355 µM [inhibitor, full curve, poor fit]"},
      {"compound": "CC(=O)Nc1ccccc1OCc1cccc(C)c1", "activity change, negative = inhibition": "inactive: -8.67%"},
      {"compound": "Brc1ccc2c(c1)-c1ccccc1C1=NCCN12", "Potency": "inconclusive: 25.1 µM [inhibitor, partial curve, poor fit]"},
      {"compound": "O=S1(=O)CSCS(=O)(=O)C1", "Potency": "inconclusive: 39.8 µM [inhibitor, partial curve, poor fit]"},
      {"compound": "N#CCCNC(=O)COC(=O)c1ccccc1-c1ncc(-c2ccc(F)cc2)o1", "activity change, negative = inhibition": "inactive: -7.35%"},
      {"compound": "CCCCCNC(=O)C(c1ccnc2ccccc12)n1c(=O)c(-c2cc3ccccc3[nH]2)nc2ccccc21", "note": "(configuration not stated)", "Potency": "inconclusive: 100 µM [inhibitor, single point]"},
      {"compound": "O=C(NCCc1c[nH]c2ccccc12)c1ccc(-c2ccccc2)cc1", "Potency": "inconclusive: 50.1 µM [inhibitor, partial curve, poor fit]"},
      {"compound": "Cc1cc(N2C(=O)C(O)=C(C(=O)c3ccc(C)o3)C2c2ccc([N+](=O)[O-])cc2)no1", "note": "(configuration not stated)", "Potency": "active: 39.8 µM"},
      {"compound": "CC1CCc2sc(C(=O)NC(C)C3CCCO3)cc2C1", "note": "(configuration not stated)", "Potency": "inconclusive: 39.8 µM [inhibitor, partial curve, poor fit]"},
      {"compound": "CCc1nc2c(OCc3cccc(Cl)c3)cccn2c1N(C)C(=O)c1ccco1", "Potency": "inconclusive: 100 µM [inhibitor, single point]"},
      {"compound": "COC(=O)N[C@H](c1ccccc1)[C@@]1(C)C[C@@H]1[C@@H](C)C(=O)Nc1ccc2ccccc2c1", "activity change, negative = inhibition": "inactive: -16.3%"},
      {"compound": "CCOC(=O)c1c(C)[nH]c(C)c1C(=O)COC(=O)c1ccccc1O", "Potency": "inconclusive: 112 µM [inhibitor, partial curve, poor fit]"},
      {"compound": "CCOCc1c(C(=O)NC2=Nc3ccccc3NC(CC)=C2C(=O)OCC)oc2ccccc12", "activity change, negative = inhibition": "inactive: -11.2%"},
      {"compound": "Cc1oc(-c2cccs2)nc1CN1CCN(CC(C)C)C(CCO)C1", "note": "(configuration not stated)", "activity change, negative = inhibition": "inactive: 1.18%"},
      {"compound": "COc1ccc(OC)c(NC(=O)Cn2c(=O)n(Cc3nc(C)no3)c(=O)c3ccccc32)c1", "activity change, negative = inhibition": "inactive: 5.26%"},
      {"compound": "O=C(NCC1CN(Cc2ccccc2)CC12CN(c1ccccc1)C2)Nc1ccccc1", "note": "(configuration not stated)", "Potency": "inconclusive: 56.2 µM [inhibitor, full curve]"},
      {"compound": "CC1(C)NC(=O)N(CC(=O)N2CCN(c3ccc([N+](=O)[O-])cc3)CC2)C1=O", "Potency": "inconclusive: 50.1 µM [inhibitor, partial curve, poor fit]"},
      {"compound": "O=C(CSC1=Nc2ccccc2N=C(c2ccc(F)cc2)C1)Nc1ccc(Cl)cc1", "Potency": "inconclusive: 25.1 µM [inhibitor, full curve, poor fit]"},
      {"compound": "Fc1cccc(Cl)c1CNCCOc1ccccn1", "Potency": "inconclusive: 31.6 µM [inhibitor, partial curve, poor fit]"},
      {"compound": "CCOc1ccc(S(=O)(=O)n2ccnc2)c2ccccc12", "Potency": "inconclusive: 50.1 µM [inhibitor, partial curve, poor fit]"},
      {"compound": "COc1ccc([C@H]2CN(c3ccc(OC)cc3)C(=O)[C@@H]2CC(=O)Nc2ccc(Br)cc2)cc1", "activity change, negative = inhibition": "inactive: -1.86%"},
      {"compound": "COc1cc(-c2nnc3n2C(C)(C)Cc2cc(C)c(C)cc2-3)cc(OC)c1OC", "activity change, negative = inhibition": "inactive: -32.7%"},
      {"compound": "S=c1[nH]nc(-c2ccn[nH]2)n1-c1ccccc1Cl", "Potency": "inconclusive: 79.4 µM [inhibitor, single point]"},
      {"compound": "OC(CNCCc1ccccc1)COc1ccc(OCC(O)CNCCc2ccccc2)cc1", "note": "(configuration not stated)", "activity change, negative = inhibition": "inactive: 0%"},
      {"compound": "COCCN(C(=O)CSc1nnc(-c2ccccc2C)n1C)c1c(N)n(Cc2ccccc2)c(=O)[nH]c1=O", "activity change, negative = inhibition": "inactive: -10.1%"},
      {"compound": "COc1ccc(C2c3c(ncn(CCCO)c3=N)Oc3ccc4ccccc4c32)cc1", "note": "(configuration not stated)", "Potency": "inconclusive: 44.7 µM [inhibitor, partial curve, poor fit]"},
      {"compound": "Cn1c(SCC(=O)c2ccc(F)cc2)nnc1-c1ccccn1", "Potency": "inconclusive: 100 µM [inhibitor, single point]"},
      {"compound": "O=C(CCC1CCCC1)NCc1nnc2c(-c3nc(C4CC4)no3)cccn12", "activity change, negative = inhibition": "inactive: 40.6%"},
      {"compound": "Cc1cc(C)nc(NNc2ccc([N+](=O)[O-])cc2)n1", "Potency": "inconclusive: 5.62 µM [inhibitor, full curve, poor fit]"},
      {"compound": "CCN(C[C@H]1N[C@@](CC)(C(=O)OC)[C@H]2C(=O)N(Cc3ccccc3)C(=O)[C@@H]12)C(=O)c1ccc(F)cc1", "Potency": "inconclusive: 3.55 µM [inhibitor, full curve, poor fit]"},
      {"compound": "COCCOCC(O)CN1CCN(c2ccccc2)CC1", "note": "(configuration not stated)", "Potency": "inconclusive: 2.51 µM [inhibitor, full curve]"},
      {"compound": "Cc1ccccc1-c1nnc(SCC(=O)NC2CCCCC2)o1", "activity change, negative = inhibition": "inactive: -9.57%"},
      {"compound": "Cc1c(C(=O)NCCCN2CCCC2=O)oc2ccc(S(=O)(=O)N3CCOCC3)cc12", "activity change, negative = inhibition": "inactive: -11.6%"},
      {"compound": "O=C(CSc1nnc(-c2cccs2)n1C1CC1)N1CCN(c2ccc(F)cc2)CC1", "Potency": "inconclusive: 50.1 µM [inhibitor, single point]"}
    ]}
  ]
}
